PubChem BioAssay AID1508588 – Peter MacCallum Cancer Centre | 2020
The whole screen tested about 18,000 reagents; below is a part drawn at random. In the full data, 790 (4.4%) are marked active. 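Calls rest on a combination of fold-change classes in drug and vehicle arms, not all shown here.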 Unmarked entries are inactive.

Test: 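Which gene losses make BRAF-mutant melanoma cells more responsive to vemurafenib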 (primary screen)
System: human WM266.4 melanoma cells (BRAF V600 mutant)
Knock-down reagent: siRNA pool against human genes, 40 nM
Timing: 96 h from transfection to read-out
Conditions: vemurafenib 300 nM (about IC25), added 48 h after transfection, for 48 h; comparison arm got DMSO vehicle only
Measured: 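Ratios to non-targeting siRNA for cell gain, counted as DAPI nuclei after minus before drug and averaged over two replicates, and for absorbance-read medium lactate per cell; both binned into fold-change classes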
Direction: cell gain with vemurafenib: higher = more cell gain than with non-targeting siRNA; lactate per cell with vemurafenib: higher = more lactate made per cell
Rule for the call: 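Enhancement is called by pairing each knock-down's vehicle-arm and drug-arm fold-change classes for viability or glycolysis; which class combinations qualify is not given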
Calls: active = enhances vemurafenib effect; inactive = no enhancement seen

IFI44 (GeneID 10561) — cell gain with vemurafenib = 0.75; lactate per cell with vemurafenib = 0.73
RHOT2 (GeneID 89941) — cell gain with vemurafenib = 0.73; lactate per cell with vemurafenib = 0.95
NXNL1 (GeneID 115861) — cell gain with vemurafenib = 0.6; lactate per cell with vemurafenib = 1.15
GSTT2 (GeneID 2953) — cell gain with vemurafenib = 1.21; lactate per cell with vemurafenib = 0.55
RALA (GeneID 5898) — cell gain with vemurafenib = 0.73; lactate per cell with vemurafenib = 1.29
LMBRD2 (GeneID 92255) — cell gain with vemurafenib = 0.46; lactate per cell with vemurafenib = 1.11
MYEOV (GeneID 26579) — cell gain with vemurafenib = 0.51; lactate per cell with vemurafenib = 0.54
PLEK2 (GeneID 26499) — cell gain with vemurafenib = 0.65; lactate per cell with vemurafenib = 0.26
MSRB1 (GeneID 51734) — cell gain with vemurafenib = 0.62; lactate per cell with vemurafenib = 0.9
STAT5A (GeneID 6776) — cell gain with vemurafenib = 0.34; lactate per cell with vemurafenib = 0.72
ZIM3 (GeneID 114026) — cell gain with vemurafenib = 0.47; lactate per cell with vemurafenib = 2.31
MMACHC (GeneID 25974) — cell gain with vemurafenib = 0.12; lactate per cell with vemurafenib = 0.92
TMEM44 (GeneID 93109) — cell gain with vemurafenib = 0.67; lactate per cell with vemurafenib = 0.51
AKTIP (GeneID 64400) — cell gain with vemurafenib = 0.84; lactate per cell with vemurafenib = 0.78
PRXL2A (GeneID 84293) — cell gain with vemurafenib = 0.52; lactate per cell with vemurafenib = 0.97
CXCL1 (GeneID 2919) — cell gain with vemurafenib = 0.68; lactate per cell with vemurafenib = 1.06
